This is one part of the list.
Legend:
Experiment in all cases: log2 fold change, soluble protein after heating vs DMSO (PISA); higher = thermal stabilisation; K562 lysate, 10 uM; active = over 0.2 and 3.5 SD of the protein, either way, in both replicates (recomputed)
[1] = compound: Cc1nc(Nc2ncc(C(=O)Nc3c(C)cccc3Cl)s2)cc(N2CCN(CCO)CC2)n1 [dasatinib]
In short: (§1)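 Values give the log-two fold change in thermal stability against solvent controls, from duplicates. Crude K562 extract at 1 mg/mL protein, made by dounce homogenisation in PBS pH 7.4 with 1 mM MgCl2, was treated with 10 μM compound for 30 min. After 3 min heating across 48°C-58°C, aliquots were pooled, adjusted to 0.5% NP-40 at 4°C and centrifuged at 21,000xg for 90 min. The supernatant was measured by TMTpro 16plex LC-MS/MS with channel sums equalised.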

The chains behind the UniProt entries cited, without tags or fusion partners. Where a name states a change or a piece, a line headed by the entry shows the natural chain unless it says otherwise.
UniProt O15243: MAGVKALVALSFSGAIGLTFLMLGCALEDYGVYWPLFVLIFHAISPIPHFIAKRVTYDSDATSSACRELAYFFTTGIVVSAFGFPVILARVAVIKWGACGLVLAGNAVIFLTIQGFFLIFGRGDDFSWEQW
UniProt Q6ZRR7: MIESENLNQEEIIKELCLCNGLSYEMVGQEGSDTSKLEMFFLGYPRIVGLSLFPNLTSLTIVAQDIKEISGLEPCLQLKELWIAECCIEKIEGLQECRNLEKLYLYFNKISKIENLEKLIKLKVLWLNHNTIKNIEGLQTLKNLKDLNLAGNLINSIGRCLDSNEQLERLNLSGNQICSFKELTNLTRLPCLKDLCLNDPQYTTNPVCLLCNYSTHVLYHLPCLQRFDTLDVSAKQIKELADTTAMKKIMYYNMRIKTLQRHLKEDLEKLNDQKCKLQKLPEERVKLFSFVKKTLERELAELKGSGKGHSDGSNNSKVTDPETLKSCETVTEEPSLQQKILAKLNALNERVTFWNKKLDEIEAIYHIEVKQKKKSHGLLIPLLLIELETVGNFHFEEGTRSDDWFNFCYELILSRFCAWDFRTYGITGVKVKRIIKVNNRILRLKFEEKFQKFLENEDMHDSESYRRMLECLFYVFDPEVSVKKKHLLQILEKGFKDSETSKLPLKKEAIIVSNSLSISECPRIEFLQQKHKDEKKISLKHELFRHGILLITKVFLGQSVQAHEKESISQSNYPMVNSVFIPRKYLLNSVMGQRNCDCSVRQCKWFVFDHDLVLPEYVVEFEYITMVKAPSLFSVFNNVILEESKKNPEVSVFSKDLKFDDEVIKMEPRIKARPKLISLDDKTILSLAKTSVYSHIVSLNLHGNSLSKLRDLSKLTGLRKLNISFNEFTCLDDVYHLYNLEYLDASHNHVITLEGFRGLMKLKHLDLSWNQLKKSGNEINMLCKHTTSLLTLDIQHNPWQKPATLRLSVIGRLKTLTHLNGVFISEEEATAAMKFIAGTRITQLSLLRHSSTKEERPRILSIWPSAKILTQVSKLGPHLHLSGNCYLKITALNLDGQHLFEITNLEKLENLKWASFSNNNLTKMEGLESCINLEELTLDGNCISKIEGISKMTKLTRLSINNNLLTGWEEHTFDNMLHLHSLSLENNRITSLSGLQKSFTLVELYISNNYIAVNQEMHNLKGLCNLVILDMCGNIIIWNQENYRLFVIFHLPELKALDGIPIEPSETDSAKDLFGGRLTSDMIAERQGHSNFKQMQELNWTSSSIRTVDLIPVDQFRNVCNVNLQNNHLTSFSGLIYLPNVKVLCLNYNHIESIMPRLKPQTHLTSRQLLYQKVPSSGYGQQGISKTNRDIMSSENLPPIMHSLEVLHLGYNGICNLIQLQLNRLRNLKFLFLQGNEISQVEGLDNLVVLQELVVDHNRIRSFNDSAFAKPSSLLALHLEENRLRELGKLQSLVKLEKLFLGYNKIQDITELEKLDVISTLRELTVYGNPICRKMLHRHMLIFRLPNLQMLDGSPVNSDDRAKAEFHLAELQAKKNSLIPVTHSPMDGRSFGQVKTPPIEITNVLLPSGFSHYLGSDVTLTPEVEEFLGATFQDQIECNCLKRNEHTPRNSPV
UniProt Q86X29: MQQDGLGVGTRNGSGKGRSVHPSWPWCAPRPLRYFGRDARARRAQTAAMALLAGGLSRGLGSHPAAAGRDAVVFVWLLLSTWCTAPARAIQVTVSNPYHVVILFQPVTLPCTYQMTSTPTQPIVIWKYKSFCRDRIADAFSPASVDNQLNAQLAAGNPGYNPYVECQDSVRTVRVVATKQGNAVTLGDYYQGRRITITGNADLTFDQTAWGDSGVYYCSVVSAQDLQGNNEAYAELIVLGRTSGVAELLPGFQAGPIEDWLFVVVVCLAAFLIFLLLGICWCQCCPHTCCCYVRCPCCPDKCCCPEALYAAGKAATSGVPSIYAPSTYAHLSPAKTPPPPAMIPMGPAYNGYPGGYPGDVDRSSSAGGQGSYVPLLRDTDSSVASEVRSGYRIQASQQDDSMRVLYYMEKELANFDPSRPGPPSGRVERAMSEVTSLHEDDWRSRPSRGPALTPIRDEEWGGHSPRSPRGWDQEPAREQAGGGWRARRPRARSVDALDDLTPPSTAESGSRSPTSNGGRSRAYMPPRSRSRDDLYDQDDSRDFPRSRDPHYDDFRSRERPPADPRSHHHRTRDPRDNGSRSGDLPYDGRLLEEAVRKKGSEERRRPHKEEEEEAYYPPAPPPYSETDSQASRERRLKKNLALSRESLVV
UniProt Q52LA3: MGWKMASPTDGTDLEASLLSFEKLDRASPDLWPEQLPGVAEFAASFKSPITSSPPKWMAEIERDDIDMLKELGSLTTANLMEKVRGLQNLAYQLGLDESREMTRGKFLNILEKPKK
UniProt Q99732: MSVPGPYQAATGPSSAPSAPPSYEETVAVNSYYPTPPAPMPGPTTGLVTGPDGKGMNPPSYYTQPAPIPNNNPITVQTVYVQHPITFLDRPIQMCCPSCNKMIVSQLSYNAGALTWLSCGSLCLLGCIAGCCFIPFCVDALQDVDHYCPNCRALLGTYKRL
UniProt Q96JN0: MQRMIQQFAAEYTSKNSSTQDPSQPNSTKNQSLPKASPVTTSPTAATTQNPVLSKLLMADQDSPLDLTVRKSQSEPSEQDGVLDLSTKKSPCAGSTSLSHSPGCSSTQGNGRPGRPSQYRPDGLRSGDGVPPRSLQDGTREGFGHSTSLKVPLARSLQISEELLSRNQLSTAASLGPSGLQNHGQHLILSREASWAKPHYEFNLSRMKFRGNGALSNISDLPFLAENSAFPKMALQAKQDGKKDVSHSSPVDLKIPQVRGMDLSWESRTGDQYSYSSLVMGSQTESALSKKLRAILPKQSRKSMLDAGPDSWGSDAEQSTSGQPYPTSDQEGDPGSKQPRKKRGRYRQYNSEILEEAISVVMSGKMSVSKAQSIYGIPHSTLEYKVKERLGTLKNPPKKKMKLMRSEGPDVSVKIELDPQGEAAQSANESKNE
UniProt Q9UJU2, whole entry, looked up: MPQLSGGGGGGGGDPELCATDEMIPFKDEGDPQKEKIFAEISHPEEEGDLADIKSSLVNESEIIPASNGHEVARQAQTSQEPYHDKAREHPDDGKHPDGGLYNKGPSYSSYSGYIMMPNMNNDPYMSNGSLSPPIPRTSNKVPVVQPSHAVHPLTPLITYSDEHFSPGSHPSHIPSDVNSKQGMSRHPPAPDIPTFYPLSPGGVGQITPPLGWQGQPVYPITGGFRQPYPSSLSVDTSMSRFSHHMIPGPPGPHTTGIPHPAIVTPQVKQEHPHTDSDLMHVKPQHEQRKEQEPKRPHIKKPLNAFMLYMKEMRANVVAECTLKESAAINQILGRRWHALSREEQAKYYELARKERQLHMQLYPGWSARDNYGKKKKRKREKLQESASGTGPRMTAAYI
UniProt P18858, whole entry, looked up: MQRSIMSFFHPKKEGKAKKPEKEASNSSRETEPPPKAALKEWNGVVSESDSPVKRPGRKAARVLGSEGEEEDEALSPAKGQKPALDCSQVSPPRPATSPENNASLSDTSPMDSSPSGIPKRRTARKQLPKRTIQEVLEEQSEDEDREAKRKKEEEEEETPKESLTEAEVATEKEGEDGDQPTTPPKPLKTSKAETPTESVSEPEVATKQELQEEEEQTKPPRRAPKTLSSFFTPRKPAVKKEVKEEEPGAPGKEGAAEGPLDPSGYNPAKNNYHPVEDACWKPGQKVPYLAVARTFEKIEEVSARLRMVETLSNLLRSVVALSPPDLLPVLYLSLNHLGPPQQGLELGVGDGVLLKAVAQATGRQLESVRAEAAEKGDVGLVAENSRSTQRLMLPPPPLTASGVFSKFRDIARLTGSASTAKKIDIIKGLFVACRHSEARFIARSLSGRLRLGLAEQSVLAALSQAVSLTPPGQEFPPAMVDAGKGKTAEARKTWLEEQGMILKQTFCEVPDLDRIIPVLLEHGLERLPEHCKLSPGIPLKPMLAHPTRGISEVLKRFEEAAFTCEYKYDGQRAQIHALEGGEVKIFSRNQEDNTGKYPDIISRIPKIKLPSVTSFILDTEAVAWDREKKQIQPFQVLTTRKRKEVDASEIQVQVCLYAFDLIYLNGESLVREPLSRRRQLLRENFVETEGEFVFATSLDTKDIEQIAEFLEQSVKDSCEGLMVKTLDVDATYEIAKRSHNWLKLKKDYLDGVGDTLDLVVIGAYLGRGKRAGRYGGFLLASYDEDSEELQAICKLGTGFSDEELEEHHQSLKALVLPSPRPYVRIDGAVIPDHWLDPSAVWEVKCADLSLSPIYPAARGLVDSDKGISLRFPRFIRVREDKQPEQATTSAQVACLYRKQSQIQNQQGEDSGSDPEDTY
UniProt Q86WU2: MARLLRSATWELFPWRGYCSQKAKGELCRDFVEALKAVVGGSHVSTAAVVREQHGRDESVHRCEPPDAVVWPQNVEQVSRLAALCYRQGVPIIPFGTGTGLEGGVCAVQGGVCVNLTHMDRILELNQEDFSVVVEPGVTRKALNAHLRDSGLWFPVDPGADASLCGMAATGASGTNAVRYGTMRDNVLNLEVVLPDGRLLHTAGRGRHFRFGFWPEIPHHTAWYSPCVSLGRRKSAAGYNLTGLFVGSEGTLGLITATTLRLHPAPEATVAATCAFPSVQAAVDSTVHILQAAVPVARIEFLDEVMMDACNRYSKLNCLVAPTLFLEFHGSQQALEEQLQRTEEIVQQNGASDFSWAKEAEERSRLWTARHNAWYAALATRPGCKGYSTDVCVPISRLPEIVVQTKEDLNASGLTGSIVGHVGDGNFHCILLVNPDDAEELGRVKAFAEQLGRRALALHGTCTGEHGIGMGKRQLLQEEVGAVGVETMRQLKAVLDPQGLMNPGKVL
UniProt Q53QV2: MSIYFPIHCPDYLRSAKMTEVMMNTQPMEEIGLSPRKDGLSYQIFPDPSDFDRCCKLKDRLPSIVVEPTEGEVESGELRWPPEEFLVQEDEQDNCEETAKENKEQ
UniProt Q6NSJ5: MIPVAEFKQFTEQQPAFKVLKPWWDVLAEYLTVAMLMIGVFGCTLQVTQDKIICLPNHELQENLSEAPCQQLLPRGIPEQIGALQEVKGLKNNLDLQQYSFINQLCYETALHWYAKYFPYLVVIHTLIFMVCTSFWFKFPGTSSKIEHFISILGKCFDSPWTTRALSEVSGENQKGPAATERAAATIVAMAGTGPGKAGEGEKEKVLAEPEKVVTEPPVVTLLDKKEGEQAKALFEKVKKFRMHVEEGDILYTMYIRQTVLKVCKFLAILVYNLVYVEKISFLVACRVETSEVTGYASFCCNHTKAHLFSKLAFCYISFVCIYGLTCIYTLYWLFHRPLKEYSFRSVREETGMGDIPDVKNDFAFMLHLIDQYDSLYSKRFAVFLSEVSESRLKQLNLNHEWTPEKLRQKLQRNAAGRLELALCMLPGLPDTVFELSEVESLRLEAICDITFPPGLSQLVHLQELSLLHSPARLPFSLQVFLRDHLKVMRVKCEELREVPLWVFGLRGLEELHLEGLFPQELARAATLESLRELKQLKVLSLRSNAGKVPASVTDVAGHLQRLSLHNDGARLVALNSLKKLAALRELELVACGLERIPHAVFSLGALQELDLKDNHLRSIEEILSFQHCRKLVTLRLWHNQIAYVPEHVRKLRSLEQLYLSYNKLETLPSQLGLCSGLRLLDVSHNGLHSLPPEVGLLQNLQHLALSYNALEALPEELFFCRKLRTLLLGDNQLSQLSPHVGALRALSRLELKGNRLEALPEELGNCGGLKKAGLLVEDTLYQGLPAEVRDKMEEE
UniProt Q969L4: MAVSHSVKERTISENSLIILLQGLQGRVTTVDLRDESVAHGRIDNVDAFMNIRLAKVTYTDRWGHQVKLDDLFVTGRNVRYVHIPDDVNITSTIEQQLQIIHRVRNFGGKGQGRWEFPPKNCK
UniProt Q8WVP7: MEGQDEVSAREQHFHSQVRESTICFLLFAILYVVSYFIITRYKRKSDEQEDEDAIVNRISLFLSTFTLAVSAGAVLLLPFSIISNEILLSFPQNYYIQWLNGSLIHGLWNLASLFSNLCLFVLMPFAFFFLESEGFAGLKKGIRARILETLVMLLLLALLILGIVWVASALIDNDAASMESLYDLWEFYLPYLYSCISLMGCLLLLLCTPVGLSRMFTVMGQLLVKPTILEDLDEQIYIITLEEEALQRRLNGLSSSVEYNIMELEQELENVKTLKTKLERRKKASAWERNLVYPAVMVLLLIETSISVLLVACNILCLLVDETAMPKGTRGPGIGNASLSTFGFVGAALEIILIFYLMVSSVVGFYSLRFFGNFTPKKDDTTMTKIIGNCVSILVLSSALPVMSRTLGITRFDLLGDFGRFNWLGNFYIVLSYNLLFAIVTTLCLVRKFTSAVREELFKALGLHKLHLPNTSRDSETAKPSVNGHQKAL
UniProt A6NK58: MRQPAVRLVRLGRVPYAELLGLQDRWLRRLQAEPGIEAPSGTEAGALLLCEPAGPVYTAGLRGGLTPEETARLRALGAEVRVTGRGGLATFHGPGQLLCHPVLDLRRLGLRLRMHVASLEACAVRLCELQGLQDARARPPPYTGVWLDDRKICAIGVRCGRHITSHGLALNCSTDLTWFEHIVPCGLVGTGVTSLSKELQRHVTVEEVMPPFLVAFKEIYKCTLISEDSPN

[2] = compound: Cn1cc(-c2ccc3c(c2)CCN3C(=O)Cc2cccc(C(F)(F)F)c2)c2c(N)ncnc21
In short: as §1

[3] = compound: Cn1cc(CNCC2CCN(c3ncc(C(=O)NO)cn3)CC2)c2ccccc21 [quisinostat]
In short: as §1

[4] = compound: NC(=O)Nc1cc(-c2cccc(F)c2)sc1C(=O)N[C@H]1CCCNC1
In short: as §1

[5] = compound: O=C1NC(=O)C(c2cnc3ccccn23)=C1c1cn2c3c(cc(F)cc13)CN(C(=O)N1CCCCC1)CC2
In short: as §1

[6] = compound: NC1(c2ccc(-c3nc4ccn5c(=O)[nH]nc5c4cc3-c3ccccc3)cc2)CCC1
In short: as §1

[7] = compound: O=C(CCCCCCC(=O)Nc1ccccc1)NO [vorinostat]
In short: as §1

[8] = compound: O=C(O)c1ccc2c(c1)nc(Nc1cccc(Cl)c1)c1ccncc12 [silmitasertib]
In short: as §1

[9] = compound: c1cn2cc(-c3ccc4cn[nH]c4c3)nc(Nc3ccc(N4CCOCC4)cc3)c2n1 [entospletinib]
In short: as §1

[10] = compound: NC(=O)c1cnc(N[C@@H]2CCCC[C@@H]2N)nc1Nc1cccc(-n2nccn2)c1
In short: as §1

[11] = compound: NCC(=O)Nc1ccc(-n2nc(C(F)(F)F)cc2-c2ccc3c(ccc4ccccc43)c2)cc1
In short: as §1

LNX1 (UniProt Q8TBB1)
log2 fold change [1]: inactive: -0.312 | log2 fold change [2]: inactive: -0.111 | log2 fold change [3]: inactive: -0.029 | log2 fold change [4]: inactive: -0.009 | log2 fold change [5]: inactive: 0.015

LBHD1 (UniProt Q9BQE6)
log2 fold change [3]: inactive: 0.202 | log2 fold change [4]: inactive: 0.086 | log2 fold change [5]: inactive: 0.139

LRP6 (UniProt O75581)
log2 fold change [1]: inactive: -0.017 | log2 fold change [2]: inactive: -0.099 | log2 fold change [3]: inactive: 0.033 | log2 fold change [4]: inactive: 0.037 | log2 fold change [6]: inactive: -0.061 | log2 fold change [7]: inactive: 0.229 | log2 fold change [8]: inactive: 0.069 | log2 fold change [5]: inactive: 0.061 | log2 fold change [9]: inactive: -0.052

LEPROT (UniProt O15243)
log2 fold change [3]: inactive: -0.089 | log2 fold change [4]: inactive: 0.092 | log2 fold change [10]: inactive: -0.147 | log2 fold change [6]: inactive: 0.024 | log2 fold change [7]: active: -0.641 | log2 fold change [8]: inactive: 0.167 | log2 fold change [5]: inactive: -0.007 | log2 fold change [9]: inactive: 0.115

LMO4 (UniProt P61968)
log2 fold change [1]: inactive: 0.029 | log2 fold change [2]: inactive: 0.149 | log2 fold change [3]: inactive: 0.075 | log2 fold change [4]: inactive: -0.032 | log2 fold change [10]: inactive: -0.03 | log2 fold change [6]: inactive: 0.277 | log2 fold change [11]: inactive: 0.305 | log2 fold change [7]: inactive: 0.049 | log2 fold change [8]: inactive: -0.123 | log2 fold change [5]: inactive: 0.062

LRRC9 (UniProt Q6ZRR7)
log2 fold change [3]: inactive: -0.171 | log2 fold change [4]: inactive: -0.038 | log2 fold change [11]: inactive: 0.106 | log2 fold change [5]: inactive: -0.034 | log2 fold change [9]: inactive: 0.011

LSM5 (UniProt Q9Y4Y9)
log2 fold change [1]: inactive: 0.057 | log2 fold change [2]: inactive: -0.035 | log2 fold change [3]: inactive: -0.01 | log2 fold change [4]: inactive: 0.016 | log2 fold change [10]: inactive: 0.112 | log2 fold change [6]: inactive: 0.225 | log2 fold change [11]: inactive: -0.091 | log2 fold change [7]: inactive: 0.25 | log2 fold change [8]: inactive: -0.052 | log2 fold change [5]: inactive: -0.05 | log2 fold change [9]: inactive: 0.031

LSR isoform 3 (UniProt Q86X29)
log2 fold change [3]: inactive: 0.093 | log2 fold change [4]: inactive: -0.232 | log2 fold change [5]: inactive: -0.028

LINGO1 (UniProt Q96FE5)
log2 fold change [1]: inactive: 0.026 | log2 fold change [2]: inactive: -0.018 | log2 fold change [10]: inactive: 0.042 | log2 fold change [6]: inactive: 0.01 | log2 fold change [11]: inactive: 0.044 | log2 fold change [7]: inactive: 0.132 | log2 fold change [8]: inactive: 0.006 | log2 fold change [9]: inactive: -0.031

LRP8 (UniProt Q14114)
log2 fold change [3]: inactive: -0.09 | log2 fold change [4]: inactive: 0.058 | log2 fold change [10]: inactive: 0.059 | log2 fold change [11]: inactive: 0.045 | log2 fold change [5]: inactive: -0.063 | log2 fold change [9]: inactive: 0.028

LIMD2 (UniProt Q9BT23)
log2 fold change [3]: inactive: -0.072 | log2 fold change [4]: inactive: 0.017 | log2 fold change [5]: inactive: 0.005

LIN52 (UniProt Q52LA3)
log2 fold change [1]: inactive: -0.272 | log2 fold change [2]: inactive: 0.023 | log2 fold change [3]: inactive: 0.064 | log2 fold change [4]: inactive: -0.073 | log2 fold change [10]: inactive: -0.124 | log2 fold change [6]: inactive: -0.002 | log2 fold change [7]: inactive: 0.135 | log2 fold change [8]: inactive: 0.07 | log2 fold change [5]: inactive: -0.043

LITAF (UniProt Q99732)
log2 fold change [1]: inactive: 0.099 | log2 fold change [2]: inactive: 0.114 | log2 fold change [3]: inactive: -0.017 | log2 fold change [4]: inactive: 0.002 | log2 fold change [10]: inactive: 0.095 | log2 fold change [6]: inactive: 0.116 | log2 fold change [7]: inactive: 0.078 | log2 fold change [8]: inactive: -0.09 | log2 fold change [5]: inactive: -0.011 | log2 fold change [9]: inactive: 0.03

LHFPL2 (UniProt Q6ZUX7)
log2 fold change [3]: inactive: 0.013 | log2 fold change [4]: inactive: 0.124 | log2 fold change [5]: inactive: 0.031

LRP1 (UniProt Q07954)
log2 fold change [3]: active: -0.936 | log2 fold change [4]: inactive: 0.114 | log2 fold change [10]: inactive: 0.122 | log2 fold change [11]: inactive: 0.233 | log2 fold change [5]: inactive: 0.296 | log2 fold change [9]: inactive: -0.032

LCOR isoform 3 (UniProt Q96JN0)
log2 fold change [10]: inactive: -0.263

LRRC25 (UniProt Q8N386)
log2 fold change [3]: inactive: 0.05 | log2 fold change [4]: inactive: 0.155 | log2 fold change [10]: inactive: -0.083 | log2 fold change [5]: inactive: 0.003 | log2 fold change [9]: inactive: -0.041

LDHA isoform 4 (UniProt P00338)
log2 fold change [10]: inactive: 0.059

LONP2 (UniProt Q86WA8)
log2 fold change [11]: inactive: 0.049

LEF1 (UniProt Q9UJU2)
log2 fold change [3]: inactive: -0.12 | log2 fold change [4]: inactive: 0.054 | log2 fold change [11]: inactive: 0.134 | log2 fold change [5]: inactive: -0.057

LIG1 isoform 3 (UniProt P18858)
log2 fold change [9]: inactive: 0.025

LDHD (UniProt Q86WU2)
log2 fold change [9]: inactive: 0.026

LRFN4 (UniProt Q6PJG9)
log2 fold change [1]: inactive: 0.049 | log2 fold change [2]: inactive: 0.035 | log2 fold change [3]: inactive: 0.05 | log2 fold change [4]: inactive: -0.001 | log2 fold change [10]: inactive: 0.016 | log2 fold change [6]: inactive: 0.006 | log2 fold change [11]: inactive: 0.028 | log2 fold change [7]: inactive: 0.056 | log2 fold change [8]: inactive: -0.06 | log2 fold change [5]: inactive: -0.073 | log2 fold change [9]: inactive: 0.017

LBH (UniProt Q53QV2)
log2 fold change [1]: inactive: 0.04 | log2 fold change [2]: inactive: -0.087 | log2 fold change [6]: inactive: 0.084 | log2 fold change [7]: inactive: 0.148 | log2 fold change [8]: inactive: -0.075 | log2 fold change [9]: inactive: -0.115

LRRC8E (UniProt Q6NSJ5)
log2 fold change [3]: inactive: 0.011 | log2 fold change [4]: inactive: 0.014 | log2 fold change [11]: inactive: 0.03 | log2 fold change [5]: inactive: 0.033 | log2 fold change [9]: inactive: 0.083

LSM10 (UniProt Q969L4)
log2 fold change [1]: inactive: -0.115 | log2 fold change [2]: inactive: 0.001 | log2 fold change [10]: inactive: -0.011 | log2 fold change [6]: inactive: 0.04 | log2 fold change [7]: inactive: 0.351 | log2 fold change [8]: inactive: 0.053

LRP10 (UniProt Q7Z4F1)
log2 fold change [1]: inactive: 0.015 | log2 fold change [2]: inactive: 0.072 | log2 fold change [6]: inactive: -0.313 | log2 fold change [7]: inactive: 0.311 | log2 fold change [8]: inactive: -0.062 | log2 fold change [9]: inactive: 0.013

LRPPRC (UniProt H7C3W8)
log2 fold change [11]: inactive: 0.792

LRP5 (UniProt O75197)
log2 fold change [1]: inactive: 0.098 | log2 fold change [2]: inactive: -0.117 | log2 fold change [6]: inactive: -0.067 | log2 fold change [7]: inactive: 0.158 | log2 fold change [8]: inactive: -0.107 | log2 fold change [9]: inactive: -0.074

LINC00526 (UniProt Q96FQ7)
log2 fold change [3]: inactive: 0.092 | log2 fold change [4]: inactive: -0.126 | log2 fold change [5]: inactive: 0.084

LSM11 (UniProt P83369)
log2 fold change [1]: inactive: 0.266 | log2 fold change [2]: inactive: -0.049 | log2 fold change [3]: inactive: -0.114 | log2 fold change [4]: inactive: 0.049 | log2 fold change [6]: inactive: -0.037 | log2 fold change [11]: inactive: 0.233 | log2 fold change [7]: inactive: -0.027 | log2 fold change [8]: inactive: 0.194 | log2 fold change [5]: inactive: 0.014 | log2 fold change [9]: inactive: -0.02

LEMD2 (UniProt Q8NC56)
log2 fold change [1]: inactive: 0.061 | log2 fold change [2]: inactive: -0.157 | log2 fold change [3]: inactive: -0.035 | log2 fold change [4]: inactive: 0.03 | log2 fold change [10]: inactive: -0.012 | log2 fold change [6]: inactive: 0.138 | log2 fold change [7]: inactive: 0.006 | log2 fold change [8]: inactive: 0.264 | log2 fold change [5]: inactive: -0.042 | log2 fold change [9]: inactive: 0.082

LCORL (UniProt Q8N3X6)
log2 fold change [6]: inactive: -0.355 | log2 fold change [11]: inactive: 0.091 | log2 fold change [7]: inactive: -0.204 | log2 fold change [8]: inactive: 0.104

LRG1 (UniProt P02750)
log2 fold change [3]: inactive: -0.022 | log2 fold change [4]: inactive: 0.039 | log2 fold change [6]: inactive: 0.167 | log2 fold change [7]: inactive: -0.007 | log2 fold change [8]: inactive: -0.036 | log2 fold change [5]: inactive: -0.055 | log2 fold change [9]: inactive: 0.075

LRRIQ1 (UniProt Q96JM4)
log2 fold change [3]: inactive: -0.518 | log2 fold change [4]: inactive: 0.242 | log2 fold change [10]: inactive: 0.019 | log2 fold change [11]: inactive: 0.056 | log2 fold change [5]: active: 0.754

LRRC7 (UniProt Q96NW7)
log2 fold change [1]: inactive: 0.059 | log2 fold change [2]: inactive: -0.043 | log2 fold change [3]: inactive: 0.128 | log2 fold change [4]: inactive: -0.009 | log2 fold change [10]: inactive: 0.069 | log2 fold change [11]: inactive: -0.097 | log2 fold change [5]: inactive: -0.012 | log2 fold change [9]: inactive: -0.108

LMBR1 isoform 3 (UniProt Q8WVP7)
log2 fold change [3]: inactive: 0.006 | log2 fold change [4]: inactive: 0.159 | log2 fold change [5]: inactive: 0.017

LIPT2 (UniProt A6NK58)
log2 fold change [10]: inactive: -0.038 | log2 fold change [9]: inactive: -0.052

LEPROTL1 isoform 2 (UniProt O95214)
log2 fold change [1]: inactive: -0.056 | log2 fold change [2]: inactive: 0.248 | log2 fold change [10]: inactive: -0.055 | log2 fold change [6]: inactive: 0.033 | log2 fold change [11]: inactive: -0.012 | log2 fold change [7]: inactive: -0.363 | log2 fold change [8]: inactive: 0.11

From the supplement of paper PMC10849652
